Laboratory results reported in patent publication US20020147158A1, “Composition and method for preventing and treating sinusoidal obstruction syndrome and radiation-induced liver disease” (University of Southern California, priority 2001, published 2002).
At least one compound was matched to its structure with a doubt left.

System: SOS
Assay: prevention of SOS in human subjects
Assay type: in vivo
Conditions: no details given

SMILES: C[C@H]1c2cccc(O)c2C(=O)C2=C(O)[C@]3(O)C(=O)C(C(N)=O)=C(O)[C@@H](N(C)C)[C@@H]3[C@@H](O)[C@@H]21 [doxycycline]
- prevention of SOS in human subjects: completely prevented SOS
